Reference: PubChem BioAssay AID651640 (Broad Institute, 2012)
The whole screen tested about 350,000 compounds, of which about 6,000 (1.7%) were called active. This list was built around the results that the source calls inconclusive (neither active nor inactive); the mix of calls is not that of the screen. Cut-off read from the data, not from the text of the source: active = CPE inhibition above about 20% (passing the limit was not always enough); inconclusive = no clear call, values can overlap the other calls; tested in BHK-21 cells. Some compounds were tested as several samples or in several runs, with calls that do not always agree.

experiment: protection of cells from dengue 2 killing – plate reader, single concentration, primary screen (AID 651640); conditions: DENV2-infected cells, cytopathic effect rescue, at 9.99 µM, active compounds read high;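 note: 0% = median of neutral control wells and 100% = median of positive control wells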

Row | SMILES | CPE inhibition
1 | COc1ccc(C(=O)NCCc2nc3cc([N+](=O)[O-])ccc3n2C)cc1 | inconclusive: 25.9%
2 | CN(CC(=O)NCCc1ccc(S(N)(=O)=O)cc1)Cc1c(F)cccc1Cl | inconclusive: 22.2%
3 | CC(C)NC(=O)Nc1ccc2c(c1)CC(=O)N([C@H](C)CO)C[C@@H](C)[C@H](CN(C)S(C)(=O)=O)O2 | inconclusive: 21.7%
4 | Cc1occc1C(=O)N(C)Cc1nc(-c2ccccc2)no1 | inconclusive: 24%
5 | CCN(c1ccc(OC)cc1)S(=O)(=O)c1nnc(NC(=O)COc2ccc(F)cc2)s1 | inconclusive: 36.1%
6 | O=C(Nc1ccc(F)cc1)N[C@H]1CC[C@@H](CCn2cc(-c3ccccc3F)nn2)O[C@H]1CO | inactive: 1.93%
7 | CC(=O)N1[C@H](C(=O)NCc2ccccc2)[C@@H](CO)[C@@H]2Cn3c(cccc3=O)[C@@H]21 | inactive: -1.83%
8 | C[C@@H]1CCCCO[C@H](CN(C)S(=O)(=O)c2ccc(Cl)cc2)[C@@H](C)CN([C@@H](C)CO)C(=O)c2cc(NS(=O)(=O)c3cn(C)cn3)ccc2O1 | inconclusive: 20%
9 | CCCC(=O)Nc1ccc2c(c1)OC[C@H](C)N(C(=O)C1CCCC1)C[C@@H](C)[C@@H](OC)CN(C)C2=O | inactive: -7.8%
10 | Cc1[nH]c2ccccc2c1CC(=O)Nc1ccc(Nc2cccnc2)c(-c2cc(F)cc(F)c2)c1 | inconclusive: 64%
11 | COc1ccc(S(=O)(=O)N(C)C[C@H]2Oc3c(NC(=O)Nc4ccc(C(F)(F)F)cc4)cccc3C(=O)N([C@H](C)CO)C[C@@H]2C)cc1 | active: 20.8%
12 | COc1ccc(CN2C(=O)c3cccnc3C2=O)cc1S(=O)(=O)N1CCOc2ccc(Cl)cc21 | inconclusive: 20.9%
13 | CC(C)c1ccc(Nc2ncc3c(n2)CCN(C(=O)Nc2ccc(F)c(Cl)c2)C3)cc1 | active: 20.1%
14 | CC(C)CN(C(=O)COC(=O)C12CC3CC(CC(C3)C1)C2)c1c(N)n(Cc2ccccc2)c(=O)[nH]c1=O | inconclusive: 20.3%
15 | O=C(Nc1nnc([C@@H]2C[C@H](O)[C@@H](CO)O2)s1)c1c(F)cccc1F | inconclusive: 20%
16 | Cc1ccc(S(=O)(=O)Nc2ccc3c(c2)C(=O)N([C@H](C)CO)C[C@H](C)[C@H](CN(C)C(=O)Nc2c(C)noc2C)OCCCC[C@H](C)O3)cc1 | inactive: -5.61%
17 | COc1ccc(OC)c(NC(=O)Cn2nc(C)c3ccccc3c2=O)c1 | inconclusive: 27.4%
18 | CCS(=O)(=O)N1CC2(CN(Cc3ccccc3F)[C@@H](CO)c3[nH]c4cc(OC)ccc4c32)C1 | active: 20.4%
19 | N=c1ccn2c(n1)O[C@H]1[C@@H](CO)[C@H](O)O[C@H]12 | inconclusive: 63.6%
20 | C[C@H]1CN([C@@H](C)CO)C(=O)c2cc(NC(=O)CCN3CCOCC3)ccc2O[C@@H]1CN(C)C(=O)Nc1ccc(F)cc1 | inconclusive: 23.4%
21 | Cc1ccc(S(=O)(=O)N(C)C[C@H]2OCCCC[C@@H](C)Oc3ccc(NS(=O)(=O)c4cccs4)cc3C(=O)N([C@@H](C)CO)C[C@H]2C)cc1 | inactive: -0.609%

Row | SMILES | CPE inhibition
22 | N#C[C@H]1[C@H](c2ccc(-c3cccc(F)c3)cc2)[C@H](CO)N1C(=O)c1cccnc1 | inconclusive: 36.8%
23 | CCOC(=O)N1CCN(c2c(NCc3ccccn3)c(=O)c2=O)CC1 | inconclusive: 27.6%
24 | C[C@H]1CN([C@@H](C)CO)C(=O)c2cc(C#CCN(C)C)cnc2O[C@@H]1CN(C)C(=O)CCN1CCCCC1 | inconclusive: 22.7%
25 | C[C@@H]1CN([C@H](C)CO)S(=O)(=O)c2ccc(-c3cccc(C(=O)N(C)C)c3)cc2O[C@H]1CN(C)C(=O)Nc1ccc(F)cc1 | active: 27.1%
26 | CN1C(=O)c2cc(NC(=O)Cc3cccs3)ccc2OC[C@@H]2O[C@@H](CC(=O)N[C@H]3CCN(Cc4ccccc4)C3)CC[C@@H]21 | inactive: -4.21%
27 | O=C(Cc1csc(Nc2nc(=S)[nH]c3ccccc23)n1)N1CCN(c2cccc(Cl)c2)CC1 | inactive: -0.7%
28 | C[C@H]1CCCCO[C@H](CN(C)Cc2ccccc2)[C@@H](C)CN([C@@H](C)CO)C(=O)c2cc(NC(=O)c3ccccc3)ccc2O1 | active: 48.2%
29 | CCOC(=O)[C@@H]1[C@H]2COc3ccccc3[C@@H]2N2C(=O)N(c3ccc(OC)cc3)C(=O)[C@]12C | inconclusive: 45.6%
30 | CCCn1c(=N)n(CC(O)COc2ccc(C)cc2)c2ccccc21 (configuration not stated) | active: 41.4%
31 | O=C(C[C@H]1C[C@H]2c3cc(NC(=O)NC4CCCC4)ccc3O[C@H]2[C@@H](CO)O1)NCc1cc(F)ccc1F | inactive: -4.94%
32 | O=C(CCCN1C(=O)/C(=C/c2ccccc2)SC1=S)Nc1ccc(C(=O)O)c(O)c1 | inactive: -3.13%
33 | COCCNc1nnc(SCC(=O)NC(=O)c2ccccc2OC)s1 | inactive: 3.18%
34 | CC12CCCC(CC(=O)O)(C1)NC(=O)C2 (configuration not stated) | inconclusive: 46.8%
35 | C[C@H](CO)N1C[C@H](C)[C@H](CN(C)C)Oc2ncc(-c3cccc(C(F)(F)F)c3)cc2C1=O | inactive: -6.92%
36 | Cc1ccc(C)c(S(=O)(=O)N2CCN(C(=O)c3cccnc3)CC2)c1 | inconclusive: 39.7%
37 | Cc1noc(C)c1S(=O)(=O)Nc1ccc2c(c1)CC(=O)N([C@H](C)CO)C[C@H](C)[C@@H](CN(C)C(=O)Nc1ccc(C(F)(F)F)cc1)O2 | inactive: -4.43%
38 | C[C@@H]1CN([C@H](C)CO)C(=O)c2cccc(NC(=O)Nc3cccc4ccccc34)c2O[C@H]1CN(C)C(=O)Nc1ccccc1 | inconclusive: 26.3%
39 | Cc1cc(C)cc(C(=O)Nc2ccc(N3CCN(S(C)(=O)=O)CC3)cc2)c1 | inconclusive: 22.1%
40 | C[C@@H]1CCCCO[C@@H](CN(C)S(=O)(=O)c2ccc(F)cc2)[C@H](C)CN([C@@H](C)CO)C(=O)c2cc(NS(=O)(=O)c3cn(C)cn3)ccc2O1 | inconclusive: 38.3%
41 | Cc1ccc(S(=O)(=O)Nc2ccc3c(c2)C(=O)N([C@H](C)CO)C[C@@H](C)[C@H](CN(C)C)OCCCC[C@H](C)O3)cc1 | inactive: -1.42%
42 | Cc1noc(C)c1S(=O)(=O)Nc1ccc2c(c1)C(=O)N([C@@H](C)CO)C[C@@H](C)[C@@H](CN(C)C(=O)Nc1ccc(C(F)(F)F)cc1)OCCCC[C@@H](C)O2 | inconclusive: 36.4%

Quoted from the listing:
Under CPE inhibition, C[C@@H]1CCCCO[C@@H](CN(C)S(=O)(=O)c2ccc(F)cc2)[C@H](C)CN([C@@H](C)CO)C(=O)c2cc(NS(=O)(=O)c3cn(C)cn3)ccc2O1 has inconclusive: 38.3%
Under CPE inhibition, C[C@@H]1CN([C@H](C)CO)S(=O)(=O)c2ccc(-c3cccc(C(=O)N(C)C)c3)cc2O[C@H]1CN(C)C(=O)Nc1ccc(F)cc1 has active: 27.1%
Under CPE inhibition, C[C@@H]1CN([C@H](C)CO)C(=O)c2cccc(NC(=O)Nc3cccc4ccccc34)c2O[C@H]1CN(C)C(=O)Nc1ccccc1 has inconclusive: 26.3%
Under CPE inhibition, CCCn1c(=N)n(CC(O)COc2ccc(C)cc2)c2ccccc21 (configuration not stated) has active: 41.4%
